Data set [1] in a line: general procedure: Fmoc solid-phase peptide synthesis; 4-(4-formyl-3-methoxyphenoxy)butyryl-NovaGel HL resin, reductively aminated with 1-naphthylmethylamine; HATU/HOAt (Gly, AllylGly); DIPCDI/HOBt (Asn(Trt)); DIPCDI/HOAt (Ac6c, pTyr mimet). To be noted: for cyclisation yield: cyclisation step.
The nature of data set [2]: general procedure: Fmoc solid-phase peptide synthesis; N-(1-naphthylmethylamino)-modified NovaGel HL resin 14; HATU/HOAt (Gly, AllylGly); DIPCDI/HOBt (Asn(Trt)); DIPCDI/HOAt (Ac6c, pTyr mimet). The settings on record: whole synthesis, scale 0.030 mmol.

For the substance “Cyclo{[(2R,3R)-3-(4-di-tert-butyloxyphosphonomethyl)phenyl-2-(tert-butyloxycarbonylmethyl)pent-4-enyl]-AC6c-L-Asn-D-AllylGly}-(1-naphthyl)methyl amide”, in data set [1], the cyclisation yield worked out at 52% yield.
In data set [1], “Cyclo{[(2R,3R)-3-(4-di-tert-butyloxyphosphonomethyl)phenyl-2-(tert-butyloxycarbonylmethyl)pent-4-enyl]-AC6c-L-Asn-L-AllylGly}-(1-naphthyl)methyl amide” yielded a cyclisation yield of 73% yield.
For “Cyclo{[(2R,3R)-3-(4-dihydroxyphosphonomethyl)phenyl-2-(hydroxycarbonylmethyl)pent-4-enyl]-AC6c-L-Asn-D-AllylGly}-(1-naphthyl)methyl amide”, in data set [1] (late stage modification step), the step yield was 46% yield.
As for “[(2R)-3-(4-Dihydroxyphosphonomethyl)phenyl-2-(hydroxylcarbonylmethyl) propionyl]-Ac6c-L-Asn-Gly-(1-naphthyl)methyl Amide”, in data set [1] (whole synthesis, based on resin substitution, scale 0.030 mmol), the isolated yield is reported as 45% yield based on resin substitution. The same substance showed an isolated mass in data set [2] of 10 mg.
On to “[(2R,3R)-3-(4-Di-tert-butyloxyphosphonomethyl)phenyl-2-(tert-butyloxycarbonylmethyl)pent-4-enyl]-AC6c-L-Asn-D-AllylGly-(1-naphthyl)methyl amine”, for which the step yield in data set [1] (coupling step) was 45% yield.
Still for that read-out and setting: the result for “[(2R,3R)-3-(4-Di-tert-butyloxyphosphonomethyl)phenyl-2-(tert-butyloxycarbonylmethyl)pent-4-enyl]-AC6c-L-Asn-L-AllylGly-(1-naphthyl)methyl amide” reads 12% yield.

The values are drawn from patent publication US20080139456A1 (priority 2005, published 2008).
